{"source": "patent US20060167115A1", "about": "“Compositions for the preservation of timber” (priority 2003, published 2006)", "assay": "Penetration of TBBA into timber via vacuum impregnation (uptake)", "details": "aqueous TBBA solution 20.16% w/w; 20x20x20 mm Scots pine sapwood blocks, vacuum impregnated; one value per block", "note": "Where “and” joins values, the source holds several entries; their conditions need not be identical. Equal entries are not always repeated.", "data": [{"smiles": "CC(C)(c1cc(Br)c(O)c(Br)c1)c1cc(Br)c(O)c(Br)c1", "note": "[TBBA, Tetrabromobisphenol A]", "values": [{"measurement": "TBBA Uptake (mg)", "value": "1,369 mg and 1,100 mg and 1,311 mg and 1,115 mg and 1,113 mg and 1,197 mg"}]}]}
